Results taken from PMC6449863 (Frontiers in Chemistry, 2019).
Strings that start with PEPTIDE1 are HELM notation: dots part the residues, brackets hold end groups and non-standard residues.

Assay: general procedure: Fmoc solid-phase peptide synthesis; Rink Amide MHBA resin (100–200 mesh; loading 0.5 mmol/g); DIC/HOAt/iPr2NEt
Settings: whole synthesis, acetate salt; for final HPLC purity: scale of the general procedure 0.100 mmol; for isolated mass / isolated yield: scale 0.100 mmol

Ac-Api-Trp-As p -Asn-(αMe)Asp- Trp- Arg -Api-T hr -Trp- amide
final HPLC purity: >99%
isolated mass: 11 mg
isolated yield: 7%

Ac-Trp-(αMe)Asp- Asn-(αMe)Asp- Trp- Arg-Api-Thr-Trp-amide
final HPLC purity: >99%
isolated mass: 18 mg
isolated yield: 13%

PEPTIDE1{[ac].I.D.N.E.W.R.K.T.Q.[am]}$$$$V2.0
final HPLC purity: >99%
isolated mass: 6 mg
isolated yield: 12%

PEPTIDE1{[ac].W.D.N.E.W.R.K.T.W.[am]}$$$$V2.0
final HPLC purity: 97%
isolated mass: 22 mg
isolated yield: 16%

PEPTIDE1{[ac].[Aib].I.D.N.[Aib].W.R.K.[Aib].Q.[am]}$$$$V2.0
final HPLC purity: >99%
isolated mass: 25 mg
isolated yield: 20%

PEPTIDE1{[ac].[Aib].W.D.N.[Aib].W.R.K.[Aib].W.[am]}$$$$V2.0
final HPLC purity: 99%
isolated mass: 41 mg
isolated yield: 30%
